The results in this text go back to PMC3767597.

Results are given in words; binding and its absence hold for the method and conditions named. Binding seen in cells or lysates may run through a third protein. Some entries that bind do so weakly or less than the wild type.

The target in the assay is EZH2 (mouse (endogenous in heart)), Q61188. Nature of the assay: co-IP; nuclear pellet of homogenized whole mouse hearts (wild-type; for the PRC2 subunits also Asxl2 -/-) extracted in high salt buffer (50mM HEPES, 300mM NaCl, 10mM NaF, 1mM EDTA, 1% Triton-X, 1mM Na3VO4); IP with antibodies against the protein of interest and Dynabeads Protein G; mock IP with pre-immune serum; Western blot. Conditions: remark: other sources report otherwise.

B1: SUZ12, Q80U70 1-741 (protein)
chain: MAPQKHGGGGGGGSGPSAGSGGGGFGGSAAAVAAAASGGKSGGGGCGGGGSYSASSSSAAAAAAAAGAAVLPVKKPKMEHVQADHELFLQAFEKPTQIYRFLRTRNLIAPIFLHRTLTYMSHRNSRTSIKRKTFKVDDMLSKVEKMKGEQESHSLSAHLQLTFTGFFHKNDKPSQNSENEQNSVTLEVLLVKVCHKKRKDVSCPIRQVPTGKKQVPLNPDLNQTKPGNFPSLAVSSNEFEPSNSHMVKSYSLLFRVTRPGRREFNGMINGETNENIDVSEELPARRKRNREDGEKTFVAQMTVFDKNRRLQLLDGEYEVAMQEMEECPISKKRATWETILDGKRLPPFETFSQGPTLQFTLRWTGETNDKSTAPVAKPLATRNSESLHQENKPGSVKPAQTIAVKETLTTELQTRKEKDNSNESRQKLRIFYQFLYNNNTRQQTEARDDLHCPWCTLNCRKLYSLLKHLKLCHSRFIFNYVYHPKGARIDVSINECYDGSYAGNPQDIHRQPGFAFSRNGPVKRTPITHILVCRPKRTKASMSEFLESEDGEVEQQRTYSSGHNRLYFHSDTCLPLRPQEMEVDSEDEKDPEWLREKTITQIEEFSDVNEGEKEVMKLWNLHVMKHGFIADNQMNHACMLFVENYGQKIIKKNLCRNFMLHLVSMHDFNLISIMSIDKAVTKLREMQQKLEKGESATPSNEEIAEEQNGTANGFSETNSKEKALETDGVSGVPKQSKKQKL
For the molecule B1, the binding result is recorded as “binds”.
